The other results are listed elsewhere or left out.

Protein sequences, listed by entry. Tags and fused reporters are not part of them.
UniProt Q0JBA9, entry or part of it: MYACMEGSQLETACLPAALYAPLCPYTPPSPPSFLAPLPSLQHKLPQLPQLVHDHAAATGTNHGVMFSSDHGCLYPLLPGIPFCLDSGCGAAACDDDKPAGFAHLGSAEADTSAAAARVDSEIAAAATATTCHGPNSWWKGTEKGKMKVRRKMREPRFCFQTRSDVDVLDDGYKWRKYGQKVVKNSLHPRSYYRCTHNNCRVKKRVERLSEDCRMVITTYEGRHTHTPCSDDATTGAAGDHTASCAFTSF

For the experiment, the target named is OsWRKY34 (Oryza sativa, UniProt Q0JBA9 1-250). Kind of experiment: protein-binding microarray (RPBM); PBS, 2% BSA, 51.3 ng/ul salmon testes DNA, 50 uM zinc acetate, 200 nM TF, 25 C, 1 h; high values mean tight binding. Conditions: protein: recombinant; tags: N-terminal polyhistidine and DsRed monomer fusion (pET32a); label: CyDye5-dUTP incorporated in the synthesized complementary strand; 3' TTTTT single-stranded linker to array surface; dsDNA, one strand shown. A digest of the protocol: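 The binding signal is fluorescence intensity per feature, in arbitrary units, read on an Axon 4000B scanner. Polyhistidine- and DsRed-tagged transcription factors (N-terminal fusions) from E. coli BL21-CodonPlus were purified on Ni–NTA and applied at 200 nM for 1 h at 25 °C to a double-stranded, BSA-blocked custom Agilent array in buffer with 50 µM zinc acetate.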
Take “CAGATCCGCCGGTGCATGTTTGACCGTTCGTCTTATTCAACGGAGTCACCTAGTGCAG”: the binding signal is 13100 fluorescence intensity (a.u.). For “GCTATACATCTTTCCACTACTTCTCCTCAGCTCGCTTTCCCGGAGTCACCTAGTGCAG” the value was 8130 fluorescence intensity (a.u.); for “AAACTTATATGTTTGTGGGGTGATATATTTCATATTAATCCGGAGTCACCTAGTGCAG”, 8080 fluorescence intensity (a.u.); for “CACCGCGTACGTCACATTTACAGCTTTTGGTCGTCTATAACGGAGTCACCTAGTGCAG”, 11100 fluorescence intensity (a.u.). For “ACCCTGCACTTTTAAATCCGTCGTCCTTCTAGCTAGTGTTCGGAGTCACCTAGTGCAG” the value was 9250 fluorescence intensity (a.u.); for “GGCCTAATTGGGCCTGGGGAAAACTTACTTGGGCGGGGCTCGGAGTCACCTAGTGCAG”, 13000 fluorescence intensity (a.u.); for “ATTTGGTGTGCTTTGCCATGGAGGTTGTATGCCCACATATCGGAGTCACCTAGTGCAG”, 10400 fluorescence intensity (a.u.). Turning to “AAGTTAGTACTTTTGACCATTCAACCGGTTAGCATTTATCCGGAGTCACCTAGTGCAG”, the binding signal was 8550 fluorescence intensity (a.u.). For “GCCACATTCGGTTCCTGAGCTCTCTCTCTTTCTCAGTGTCCGGAGTCACCTAGTGCAG” the value was 9910 fluorescence intensity (a.u.). As for “TTCCCACAACTCTGCCGCTTAATTTCTTGTTGGTTCGTGTCGGAGTCACCTAGTGCAG”, the figure is 8930 fluorescence intensity (a.u.); as for “TTTGATACCTATCAGCTGGTCAGCTCTGATCTTCCTGTTTCGGAGTCACCTAGTGCAG”, 11500 fluorescence intensity (a.u.); as for “GTATGGATCACCTGATTAATTGGGCCGTCGTTCCATTCCCCGGAGTCACCTAGTGCAG”, 9830 fluorescence intensity (a.u.). As for “GTTTCTTGTGTTCTTGGTGTGGAGAAGGTCGACGCGGAAGCGGAGTCACCTAGTGCAG”, the figure is 9180 fluorescence intensity (a.u.); as for “ACGTATAACTCGTCAGGCACCTGGGCACTGGACCCCACCTCGGAGTCACCTAGTGCAG”, 8730 fluorescence intensity (a.u.).

“ATTTTAAATCACGTATTATTCAAGATCTATTTGCATCATTCGGAGTCACCTAGTGCAG”: the binding signal is 8230 fluorescence intensity (a.u.). For “TCCCACCCGCATTTTCCATTATCCAAACACATCCTCAAAGCGGAGTCACCTAGTGCAG” the value was 8950 fluorescence intensity (a.u.); for “GGTGAGTTCTTGATTTGGGCGTGGAGCTTTTTTTCTTGGTCGGAGTCACCTAGTGCAG”, 8170 fluorescence intensity (a.u.); for “CTCGCCTCCACCTCCACCGCCGCGCTCCTCTCCGCTCCTACGGAGTCACCTAGTGCAG”, 9880 fluorescence intensity (a.u.). For “TTACTGATTTACTCATTGTTACTGTTCATTGAAGCTAGTACGGAGTCACCTAGTGCAG” the value was 10300 fluorescence intensity (a.u.). Regarding “ATCCCTTATCATCGCATCTGGAATCCACACAGGTATTTTACGGAGTCACCTAGTGCAG”, the binding signal is 8110 fluorescence intensity (a.u.).

On to “CATTCTGAATGGGTTGTATTTATTGGTTACTGGTTTTTAACGGAGTCACCTAGTGCAG”, for which the binding signal was 8300 fluorescence intensity (a.u.). For “CTGCCGTAGAAGAGGATCTTCCTGTTGTGGTCGTCGACGACGGAGTCACCTAGTGCAG” the value was 8640 fluorescence intensity (a.u.). For “CTCGCCTTCGCCGGTCGCCGCCCGCCTCTCCTTCTCCGGCCGGAGTCACCTAGTGCAG” the value was 9070 fluorescence intensity (a.u.); for “AACCATCATGGTAGCCTTCGTTTAAGACTTATTTGACTTACGGAGTCACCTAGTGCAG”, 8530 fluorescence intensity (a.u.). “GTGCTTTTGTTTTAATTGTTGTCTCTTCTCTTCTCTCGTGCGGAGTCACCTAGTGCAG”: the binding signal was 8750 fluorescence intensity (a.u.). As for “GGCACTTAGCTCTGCAGTTCATTTAATTATTGTTTTATTCCGGAGTCACCTAGTGCAG”, the figure is 9670 fluorescence intensity (a.u.). As to “AGGTAGTGCTTGATTTATAGTGTTTATGGTGAAGAAATTTCGGAGTCACCTAGTGCAG”, the binding signal is 8590 fluorescence intensity (a.u.). On to “TGCTCAGCTGCATCATGTTTATCTGTGTGTTTCTTCAGAGCGGAGTCACCTAGTGCAG”, for which the binding signal is 10600 fluorescence intensity (a.u.). For “CTCTTGTAAAATTTGTACATATATTCACGATCGTTAAATTCGGAGTCACCTAGTGCAG” the value was 8720 fluorescence intensity (a.u.); for “GTTCACGTTGACTGCATCTGTCACTTGTGCTGGTTTCTGTCGGAGTCACCTAGTGCAG”, 8920 fluorescence intensity (a.u.). Regarding “TTGCCCGCGCTTCGGCCGGCCACCTTGACGGCACGCGTGCCGGAGTCACCTAGTGCAG”, the binding signal is 8040 fluorescence intensity (a.u.). As for “TCTCGTGGATAGCAAAATTTCCCATTTCTTGATGCGTGACCGGAGTCACCTAGTGCAG”, the figure is 10100 fluorescence intensity (a.u.); as for “ACTTCTATATTTCCAAATTTGTGTTTTTACCATTTTCCTCCGGAGTCACCTAGTGCAG”, 9610 fluorescence intensity (a.u.). As for “CAACATCATCCTCAACGCCGTCGCCCACCTCGCCGCCGGCCGGAGTCACCTAGTGCAG”, the figure is 9830 fluorescence intensity (a.u.). For “ATTTTGATATTTTGCTTACACTATTTGACCATTCGTCTTACGGAGTCACCTAGTGCAG” the value was 8660 fluorescence intensity (a.u.); for “GGCACCATCACTCCATCAGACCTTGGGTAATTCAAGCATACGGAGTCACCTAGTGCAG”, 9030 fluorescence intensity (a.u.); for “TCTCGCTTTATCTTCGATTCTCCGTTTGCGCTATCGTAACCGGAGTCACCTAGTGCAG”, 9240 fluorescence intensity (a.u.). As for “AATCCATCTCCGATTCCCAGTCTGGTCAATCCGCCAGAAACGGAGTCACCTAGTGCAG”, the binding signal is 11400 fluorescence intensity (a.u.). As for “TAATTTTCTTTTATGTATATACTCCTTCCATACTTATAAACGGAGTCACCTAGTGCAG”, the figure is 8690 fluorescence intensity (a.u.); as for “GGTTTTCCCAACATAATCATCCTCTAACAAGCGCATCTTACGGAGTCACCTAGTGCAG”, 8790 fluorescence intensity (a.u.); as for “TAGATCTTCTTCTTCTTCTTCGCGTCACATTTGGATCTTCCGGAGTCACCTAGTGCAG”, 11900 fluorescence intensity (a.u.).

For the sequence “GATTTGACATTTTTGACTAAAAATTTTTGGGATCTAAACACGGAGTCACCTAGTGCAG”, the binding signal is 8390 fluorescence intensity (a.u.).

Source of the values: publication PMC7819943, “Rice protein-binding microarrays: a tool to detect cis-acting elements near promoter regions in rice”.
